Source: patent publication US10835536B2, “Therapeutic agent for FGFR inhibitor-resistant cancer” (TAIHO PHARMACEUTICAL CO., LTD., priority 2013, dated 2020)

System: AZD4547 resistant cells
Assay: Cell growth inhibition, AZD4547 resistant OCUM-2MD3 cells
Type: cell-based, human
Details: AZD4547 resistant clones, in words

Compound: C=CC(=O)N1CC[C@H](n2nc(C#Cc3cc(OC)cc(OC)c3)c3c(N)ncnc32)C1 [Ex. Compound 2, (S)-1-(3-(4-amino-3-((3,5-dimethoxyphenyl)ethynyl)-1H-pyrazolo[3,4-d]pyrimidin-1-yl)pyrrolidin-1-yl)prop-2-en-1-one]
- growth inhibition compared with wild type: inhibited to the same extent as in the wild type
